Reference: article PMC9496679

Amino acid sequences for entries named in this document (tags omitted). Residues count along the entry.
UniProt Q15388: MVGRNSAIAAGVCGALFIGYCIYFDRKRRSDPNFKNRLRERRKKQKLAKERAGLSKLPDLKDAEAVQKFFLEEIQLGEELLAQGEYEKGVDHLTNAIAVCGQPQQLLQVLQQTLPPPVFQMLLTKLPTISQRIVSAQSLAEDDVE
UniProt P38646, residues 47-679: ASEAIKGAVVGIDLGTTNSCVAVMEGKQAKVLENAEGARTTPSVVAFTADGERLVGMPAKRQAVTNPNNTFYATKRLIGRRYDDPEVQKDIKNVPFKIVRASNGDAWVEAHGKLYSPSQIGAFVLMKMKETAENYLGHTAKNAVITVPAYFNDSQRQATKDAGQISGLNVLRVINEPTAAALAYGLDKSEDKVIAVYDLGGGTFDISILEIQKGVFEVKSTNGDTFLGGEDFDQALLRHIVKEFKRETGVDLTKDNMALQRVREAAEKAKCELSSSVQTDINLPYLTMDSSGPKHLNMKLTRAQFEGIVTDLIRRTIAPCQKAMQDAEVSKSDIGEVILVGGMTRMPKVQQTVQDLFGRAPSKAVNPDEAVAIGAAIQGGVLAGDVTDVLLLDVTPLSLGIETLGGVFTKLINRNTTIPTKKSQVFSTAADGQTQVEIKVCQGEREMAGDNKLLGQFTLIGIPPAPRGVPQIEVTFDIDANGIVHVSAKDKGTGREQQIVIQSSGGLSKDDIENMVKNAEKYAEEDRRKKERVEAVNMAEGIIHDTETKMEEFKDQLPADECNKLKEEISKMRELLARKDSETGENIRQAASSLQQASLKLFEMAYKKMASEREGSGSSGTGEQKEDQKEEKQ
UniProt Q6P1M0: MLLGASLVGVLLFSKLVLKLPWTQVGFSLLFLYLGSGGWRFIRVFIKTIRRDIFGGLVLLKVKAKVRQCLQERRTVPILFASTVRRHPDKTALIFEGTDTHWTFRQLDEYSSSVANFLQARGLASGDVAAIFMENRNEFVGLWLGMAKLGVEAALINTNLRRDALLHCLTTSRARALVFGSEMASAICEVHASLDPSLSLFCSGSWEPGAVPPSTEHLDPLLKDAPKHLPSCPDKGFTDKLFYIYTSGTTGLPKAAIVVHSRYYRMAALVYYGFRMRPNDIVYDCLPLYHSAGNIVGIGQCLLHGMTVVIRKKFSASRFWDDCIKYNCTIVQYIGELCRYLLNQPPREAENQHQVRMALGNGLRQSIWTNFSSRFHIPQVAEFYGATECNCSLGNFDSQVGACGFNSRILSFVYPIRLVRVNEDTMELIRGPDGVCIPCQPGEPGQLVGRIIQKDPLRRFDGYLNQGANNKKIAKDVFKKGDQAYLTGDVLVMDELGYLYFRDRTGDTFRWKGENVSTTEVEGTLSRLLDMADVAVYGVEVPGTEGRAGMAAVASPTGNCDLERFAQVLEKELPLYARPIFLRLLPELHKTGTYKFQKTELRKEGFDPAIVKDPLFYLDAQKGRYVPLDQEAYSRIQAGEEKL
UniProt P27824, residues 21-592: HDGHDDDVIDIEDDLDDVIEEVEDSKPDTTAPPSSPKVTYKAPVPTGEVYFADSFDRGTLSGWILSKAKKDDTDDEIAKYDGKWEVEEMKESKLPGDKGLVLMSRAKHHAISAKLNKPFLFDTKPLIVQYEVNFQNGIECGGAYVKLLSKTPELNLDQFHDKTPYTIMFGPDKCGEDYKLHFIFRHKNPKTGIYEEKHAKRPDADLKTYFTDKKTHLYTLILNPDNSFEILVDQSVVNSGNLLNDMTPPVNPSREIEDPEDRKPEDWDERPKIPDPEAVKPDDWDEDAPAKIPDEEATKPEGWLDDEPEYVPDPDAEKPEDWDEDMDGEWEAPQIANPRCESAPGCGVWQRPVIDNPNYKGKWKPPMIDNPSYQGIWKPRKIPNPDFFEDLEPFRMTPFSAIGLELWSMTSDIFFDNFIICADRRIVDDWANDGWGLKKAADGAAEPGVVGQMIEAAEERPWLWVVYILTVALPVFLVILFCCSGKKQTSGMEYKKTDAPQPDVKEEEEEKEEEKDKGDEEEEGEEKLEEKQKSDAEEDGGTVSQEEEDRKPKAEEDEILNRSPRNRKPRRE
UniProt P35613, residues 22-385: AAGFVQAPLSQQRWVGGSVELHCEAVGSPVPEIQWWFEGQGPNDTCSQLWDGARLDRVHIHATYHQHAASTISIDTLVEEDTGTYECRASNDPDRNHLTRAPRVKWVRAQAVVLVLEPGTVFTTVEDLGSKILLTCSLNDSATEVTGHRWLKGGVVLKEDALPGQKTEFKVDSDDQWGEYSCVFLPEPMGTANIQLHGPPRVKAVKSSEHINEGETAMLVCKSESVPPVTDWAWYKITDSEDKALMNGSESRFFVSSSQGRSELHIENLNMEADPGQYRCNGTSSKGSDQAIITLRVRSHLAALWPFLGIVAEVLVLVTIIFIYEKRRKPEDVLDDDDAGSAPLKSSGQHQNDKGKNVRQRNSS

T1: Strep II/FLAG (SF)-tagged human VLGR1_CTF (human) (UniProt Q8WXG9)
T1 sequence: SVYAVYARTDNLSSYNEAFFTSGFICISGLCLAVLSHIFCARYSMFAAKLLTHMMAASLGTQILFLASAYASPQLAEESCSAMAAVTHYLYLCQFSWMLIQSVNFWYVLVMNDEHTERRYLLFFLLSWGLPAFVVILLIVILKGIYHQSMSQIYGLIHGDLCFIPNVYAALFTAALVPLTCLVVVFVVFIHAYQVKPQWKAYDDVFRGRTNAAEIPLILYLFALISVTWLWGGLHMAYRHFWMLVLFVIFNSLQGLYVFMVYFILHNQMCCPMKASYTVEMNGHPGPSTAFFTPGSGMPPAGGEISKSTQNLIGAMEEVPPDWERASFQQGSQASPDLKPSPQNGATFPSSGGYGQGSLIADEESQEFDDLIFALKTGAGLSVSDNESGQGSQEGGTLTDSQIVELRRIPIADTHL


Key:
[1] = biological target: T1, Strep II/FLAG (SF)-tagged human VLGR1_CTF (human); experiment: affinity purification with mass spectrometry; VLGR1_CTF TAPs; the cell line (HEK293T or hTERT-RPE1) is not told for this prey
[2] = biological target: T1, Strep II/FLAG (SF)-tagged human VLGR1_CTF (human); experiment: affinity purification with mass spectrometry; tandem affinity purification (Strep-Tactin Superflow, then anti-FLAG M2 agarose) of N- and C-terminally SF-tagged VLGR1_CTF expressed 48 h in hTERT-RPE1 cells; LC-MS/MS; preys of mock and RAF1 TAPs excluded; N- and C-tagged baits pooled
[3] = biological target: T1, Strep II/FLAG (SF)-tagged human VLGR1_CTF (human); experiment: affinity purification with mass spectrometry; tandem affinity purification (Strep-Tactin Superflow, then anti-FLAG M2 agarose; elution with desthiobiotin and FLAG peptide) of N- and C-terminally SF-tagged VLGR1_CTF expressed 48 h in HEK293T cells; LC-MS/MS; preys of mock and RAF1 TAPs excluded; N- and C-tagged baits pooled

Molecule	binding [1]	binding [2]	binding [3]
mitochondrial import receptor subunit TOM20, endogenous (from UniProt Q15388 1-145)	binds		
Mitochondrial heat shock protein 9 (from UniProt P38646 47-679)		binds	binds
Long-chain fatty acid transport protein 4 (from UniProt Q6P1M0 1-643)		binds	binds
Calnexin (from UniProt P27824 21-592)		binds	binds
Basigin (from UniProt P35613 22-385)		binds	binds
Erlin-2 (protein, UniProt O94905 1-339) MAQLGAVVAVASSFFCASLFSAVHKIEEGHIGVYYRGGALLTSTSGPGFHLMLPFITSYKSVQTTLQTDEVKNVPCGTSGGVMIYFDRIEVVNFLVPNAVYDIVKNYTADYDKALIFNKIHHELNQFCSVHTLQEVYIELFDQIDENLKLALQQDLTSMAPGLVIQAVRVTKPNIPEAIRRNYELMESEKTKLLIAAQKQKVVEKEAETERKKALIEAEKVAQVAEITYGQKVMEKETEKKISEIEDAAFLAREKAKADAECYTAMKIAEANKLKLTPEYLQLMKYKAIASNSKIYFGKDIPNMFMDSAGSVSKQFEGLADKLSFGLEDEPLETATKEN		binds	binds
Reticulon-2 (protein, UniProt O75298 1-545) MGQVLPVFAHCKEAPSTASSTPDSTEGGNDDSDFRELHTAREFSEEDEEETTSQDWGTPRELTFSYIAFDGVVGSGGRRDSTARRPRPQGRSVSEPRDQHPQPSLGDSLESIPSLSQSPEPGRRGDPDTAPPSERPLEDLRLRLDHLGWVARGTGSGEDSSTSSSTPLEDEEPQEPNRLETGEAGEELDLRLRLAQPSSPEVLTPQLSPGSGTPQAGTPSPSRSRDSNSGPEEPLLEEEEKQWGPLEREPVRGQCLDSTDQLEFTVEPRLLGTAMEWLKTSLLLAVYKTVPILELSPPLWTAIGWVQRGPTPPTPVLRVLLKWAKSPRSSGVPSLSLGADMGSKVADLLYWKDTRTSGVVFTGLMVSLLCLLHFSIVSVAAHLALLLLCGTISLRVYRKVLQAVHRGDGANPFQAYLDVDLTLTREQTERLSHQITSRVVSAATQLRHFFLVEDLVDSLKLALLFYILTFVGAIFNGLTLLILGVIGLFTIPLLYRQHQAQIDQYVGLVTNQLSHIKAKIRAKIPGTGALASAAAAVSGSKAKAE		binds	binds

Results are given in words; binding and its absence hold for the method and conditions named. Binding seen in cells or lysates may run through a third protein. These calls come from enrichment with a bait or labelling near it, and not all partners need be listed. Sequences can lack the tags named with a protein.
